Two molecules from patent US20240317852A1 (Molecular Partners, published 2024) can be followed below.

Sequences of proteins named here, by UniProt entry; tags and fusion partners are left off. Residues count along the entry.
UniProt P20138, residues 18-364: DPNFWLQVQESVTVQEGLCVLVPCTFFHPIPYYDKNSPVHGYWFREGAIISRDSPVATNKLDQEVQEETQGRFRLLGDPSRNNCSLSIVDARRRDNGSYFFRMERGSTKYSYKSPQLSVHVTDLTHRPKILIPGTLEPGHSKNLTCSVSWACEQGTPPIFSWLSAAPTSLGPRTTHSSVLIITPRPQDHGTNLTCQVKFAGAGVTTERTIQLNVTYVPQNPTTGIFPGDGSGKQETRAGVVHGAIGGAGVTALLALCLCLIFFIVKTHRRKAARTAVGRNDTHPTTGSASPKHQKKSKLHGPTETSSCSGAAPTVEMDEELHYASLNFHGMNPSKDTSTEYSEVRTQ

The target in experiment [1] is biotinylated human CD33 full-length extracellular domain (residues 18-259) with C-terminal Fc tag and Avi tag (human) (UniProt P20138). Put plainly: SPR (ProteOn), bio.hCD33 immobilized on the chip, DARPin as analyte at a single concentration of 100 nM, 1:1 Langmuir fit.
Experiment [2] addresses human CD33 expressed on Molm-13 tumor cells (human) (UniProt P20138). The experiment is described as follows: flow cytometry on Molm-13 N1 cells, detection with rabbit anti-DARPin antibody and Alexa Fluor 488 anti-rabbit antibody, MFI AF488. (A flow cytometer gives signals particle by particle.)

Results are given in words; binding and its absence hold for the method and conditions named. Some results given as binding are weak or reduced against the parent protein; the word gives no strength.

B1: DARPin® protein #29 in monospecific (single domain) format (designed binder)
chain: MRGSHHHHHHGSDLGVKLLLAAERGQLDEVRILLKAGADVNAKDIAEGYTPLHIAAYQGHLEIVEVLLKAGADVNAKDRYGKTPLHLAAIGGHLEIVEVLLKAGADVNAQDNKGSTPADLAADYGHQDIAEVLQKAA
notes: the same molecule is used here
With B1, the binding result in experiment [1] and in experiment [2] was “binds” each time.

B2: DARPin® protein #30 in monospecific (single domain) format (designed binder)
chain: MRGSHHHHHHGSDLGKKLLLAAERGQLDEVRILLKAGADVNAKDRAEGYTPLHIAAYQGHLEIVEVLLKAGADVNAKDRYGKTPLHLAAISGHLEIVEVLLKAGADVNAQDNKGSTPADLAADYGHQDIAEVLQKAA
notes: as for B1
For B2, the binding result in experiment [1] and in experiment [2] was “binds” throughout.
